{"source": "paper PMC7787731", "about": "“Synthesis and Characterization of New Dihydronaphthalene Candidates as Potent Cytotoxic Agents against MCF-7 Human Cancer Cells” (BioMed Research International, 2020)", "tested_on": "MCF-7 (human breast adenocarcinoma) cell lines", "assay": "In vitro cytotoxicity MTT assay against breast cancer MCF-7 cells", "conditions": "read-out: IC50 (μM) MCF-7, 0.39-100 μM, 3 days, mean ± SD of three replicates"}
{"molecule": "CN[C@@H]1C[C@H]2O[C@@](C)([C@@H]1OC)n1c3ccccc3c3c4c(c5c6ccccc6n2c5c31)C(=O)NC4", "note": "[Staurosporin, reference compound]", "values": [{"measurement": "IC50", "result": 6.08, "unit": "µM"}]}
